# Results: PubChem BioAssay AID1347076 (National Center for Advancing Translational Sciences (NCATS), 2019)
# In all, about 400,000 compounds went through this assay and about 13,000 (3.2%) were called active. This list was built around the results that the source calls inconclusive (neither active nor inactive); the mix of calls is not that of the screen. Calls follow the shape of the dose curve; as a rule, active = well fitted cell-killing curve with a large enough effect; inconclusive = small, poorly fitted or top-dose-only effect, or effect the other way; inactive = flat fitted curve, though single readings scatter. A potency beside an inconclusive call is a rough fit, not a confirmed value.
# Assay: qHTS assay for MDR1-selective chemotherapeutics: Primary screen using the drug-selected MDR subline cells KB-V1; also: nearly all actives have a fitted effect of over 60% in size
# Settings: KB-V1 MDR cells viability, CellTiter-Glo, 72 h; activity change, negative = cytotoxicity: at 46.1 µM (top of the series)
# In short: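 Potencies derive from concentration-effect curves fitted to normalized luminescence (CellTiter-Glo) of KB-V1 cells treated for 72 h at 37 degrees C in phenol-red-free DMEM containing 10% FBS.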
# % is scaled to controls: 0 for no effect and ±100 for the full control effect; potency is read from the fitted curve at half-maximal effect.
Compound,"activity change, negative = cytotoxicity",Potency
CSCC[C@H](N)C(=O)N1CCC(C(=O)N[C@H](C)C(=O)Nc2ccc(C(C)C)cc2)CC1,inactive: -2.75%,–
Cc1ccc(C)c(S(=O)(=O)N2CCCC2CNC(=O)C(=O)NCCc2ccco2)c1 (configuration not stated),–,"inconclusive: 23.1 µM [cytotoxic, single point]"
COc1ccc(OC)c(N(CC(=O)Nc2cccc(C(F)(F)F)c2)S(C)(=O)=O)c1,–,"inconclusive: 32.6 µM [cytotoxic, single point]"
O=C(Nc1ccc(-c2cn3cccnc3n2)cc1)c1cc(Br)ccc1Cl,inactive: 2.07%,–
CCc1nc2ccc(C(=O)N3CCN(S(=O)(=O)CC)CC3)cn2c1N(CCC(C)C)CCN(C)C,inactive: -5.39%,–
COc1cc(C(=O)OCCCN2CCOCC2)ccc1O,–,"inconclusive: 1.03 µM [rising, partial curve, poor fit]"
Cc1ccc(CN2C(=O)CSCC2(C)C(=O)NCc2ccccc2)cc1 (configuration not stated),–,"inconclusive: 5.17 µM [cytotoxic, full curve]"
C=CCNc1nc(-c2ccccc2)c(C(=O)OCC)cc1C#N,–,"inconclusive: 2.06 µM [cytotoxic, full curve, poor fit]"
COc1ccc(NC(=O)CN(C)S(=O)(=O)c2ccc3c(c2)OCCO3)c2ncccc12,–,"inconclusive: 18.4 µM [cytotoxic, single point]"
CN1CCN(S(=O)(=O)c2ccc(N3CCc4ccccc4C3)nc2)CC1,–,"inconclusive: 11.6 µM [cytotoxic, partial curve]"
O=C(CCCc1ccccc1)Nc1ccc(S(=O)(=O)N2CCOCC2)cc1,–,"inconclusive: 3.66 µM [cytotoxic, full curve, poor fit]"
COC(=O)c1ccc(N2CCOCC2)c(NC(=O)Nc2cccc(OC)c2)c1,–,"inconclusive: 0.146 µM [rising, full curve]"
O=C(NC1CC1)C1CCN(C2CCN(C(=O)/C=C/c3cccc(F)c3F)CC2)CC1,–,"inconclusive: 32.6 µM [rising, single point]"
CN(C)C(CNC(=O)c1ccc(NC(=O)CC#N)cc1)c1ccccc1 (configuration not stated),–,"inconclusive: 29.1 µM [rising, single point]"
COc1ccc(-n2c(/C=C3\C(=O)N(C)c4ccccc43)nc3ccccc3c2=O)cc1,inactive: -19.1%,–
Nc1ccccc1C=C1Cc2ccccc2C1=O,inactive: 8.22%,–
N#Cc1cnn(-c2ccc([N+](=O)[O-])cc2[N+](=O)[O-])c1N,–,"inconclusive: 29.1 µM [cytotoxic, single point]"
CCOC(=O)c1nnc(-c2cccs2)nc1Oc1ccc(Cl)cc1,inactive: -2.69%,–
Cc1cc(NC(=O)c2cccc(S(=O)(=O)N(C)C)c2)n(-c2ccccn2)n1,–,active: 9.2 µM
Cc1nc(-c2cccnc2)sc1CCNS(=O)(=O)c1ccc(F)cc1,–,"inconclusive: 16.4 µM [cytotoxic, partial curve]"
CC(C)C[C@H](NC(=O)c1[nH]cnc1C(=O)N[C@@H](C)c1ccccc1)C(=O)OCc1ccccc1,–,"inconclusive: 20.6 µM [cytotoxic, single point]"

Compound,"activity change, negative = cytotoxicity",Potency
CC(=O)c1cnc2c(-c3ccccc3)c(C)nn2c1C,–,"inconclusive: 29.1 µM [cytotoxic, single point]"
NC(=O)CN(c1ccc([N+](=O)[O-])cc1)S(=O)(=O)c1ccccc1,inactive: -1.6%,–
Cc1cc(S(=O)(=O)Nc2ccc(-c3ccc(N4CCCCCC4)nn3)cc2)c(C)cc1Cl,–,"inconclusive: 29.1 µM [cytotoxic, single point]"
CCc1sc(Nc2cccc(C)c2C)nc1-c1cc2cccc(OC)c2oc1=O,inactive: 14.9%,–
Cc1ccnc2nc(C(=O)OCC(=O)N(C)C3CCCCC3)nn12,–,"inconclusive: 29.1 µM [rising, single point]"
O=C1C2C3C=CC(C4CC34)C2C(=O)N1CCCCN1CCN(c2ccc(F)cc2)CC1 (configuration not stated),inactive: -27.2%,–
Cc1c(C(=O)NCCSCc2c(Cl)cccc2Cl)cccc1[N+](=O)[O-],–,"inconclusive: 29.1 µM [cytotoxic, single point]"
O=C(Nc1cc2c(cc1Br)OCCO2)c1ccc(=O)[nH]c1,–,"inconclusive: 29.1 µM [cytotoxic, single point]"
COC(=O)c1sc(NC(=O)c2cc(-c3ccccc3)nc3ccccc23)c(C#N)c1C,–,active: 1.64 µM
Cc1[nH]c2ccc(C(=O)N3CCCCC3)cc2c1C,–,"inconclusive: 16.4 µM [cytotoxic, partial curve, poor fit]"
O=CC1=C(N2CCOCC2)/C(=C/c2ccc(Cl)cc2)CC1,–,"inconclusive: 20.6 µM [rising, partial curve, poor fit]"
Cc1ccc(S(=O)(=O)NCCN=C(CN2CCCC2)NS(=O)(=O)c2ccc(C)cc2)cc1,–,active: 6.51 µM
COc1cccc(C(=O)Nc2c3c(nn2-c2cccc(C)c2C)CS(=O)(=O)C3)c1OC,–,"inconclusive: 32.6 µM [cytotoxic, single point]"
Nc1cc(SCc2ccc(Cl)cc2Cl)ncn1,–,"inconclusive: 4.11 µM [rising, full curve, poor fit]"
COc1cc(O)c(C(CC(=O)N2CCC(Cc3ccccc3)CC2)c2ccc3c(c2)OCO3)c(OC)c1 (configuration not stated),–,"inconclusive: 63.1 µM [cytotoxic, single point]"
CCOC(=O)C(=O)N1CCN(c2cc3c(cc2[N+](=O)[O-])n(C)c(=O)n3C)CC1,–,"inconclusive: 25.9 µM [rising, single point]"
CSc1ccccc1C(=O)NCCSc1ccccc1,–,active: 18.4 µM
Cc1oc(-c2ccccc2F)nc1CS(=O)CC(=O)NCCN1CCCCC1C (configuration not stated),–,"inconclusive: 13 µM [rising, partial curve, poor fit]"
Cc1nn(-c2ccccc2)c(C)c1/C=N/n1c(-c2ccccc2Br)n[nH]c1=S,–,"inconclusive: 29.1 µM [cytotoxic, single point]"
CC(=O)N1CCCc2cc(S(=O)(=O)CCC(=O)N3CCN(c4ccccc4)CC3)ccc21,–,"inconclusive: 6.51 µM [cytotoxic, partial curve]"
O=C1CCn2c1c(O)c1ccccc1c2=O,–,"inconclusive: 23.1 µM [cytotoxic, single point]"

# Quoted at random: 2 records from the list.
Compound,"activity change, negative = cytotoxicity",Potency
Cc1nn(-c2ccccc2)c(C)c1/C=N/n1c(-c2ccccc2Br)n[nH]c1=S,–,"inconclusive: 29.1 µM [cytotoxic, single point]"
Cc1ccc(S(=O)(=O)NCCN=C(CN2CCCC2)NS(=O)(=O)c2ccc(C)cc2)cc1,–,active: 6.51 µM
